Measurements taken from paper doi:10.1101/2025.10.30.684516.
Where two headings read alike, the source gives them in different places. No constants are given. Whether binding was seen depends on the method and setting. Binding seen in cells or lysates may run through a third protein. A yes stands for co-enrichment or nearness to the bait. Other partners may have been found.

By UniProt entry, the sequences of proteins in these tests, tags left out. Residues count along the entry.
UniProt P08670: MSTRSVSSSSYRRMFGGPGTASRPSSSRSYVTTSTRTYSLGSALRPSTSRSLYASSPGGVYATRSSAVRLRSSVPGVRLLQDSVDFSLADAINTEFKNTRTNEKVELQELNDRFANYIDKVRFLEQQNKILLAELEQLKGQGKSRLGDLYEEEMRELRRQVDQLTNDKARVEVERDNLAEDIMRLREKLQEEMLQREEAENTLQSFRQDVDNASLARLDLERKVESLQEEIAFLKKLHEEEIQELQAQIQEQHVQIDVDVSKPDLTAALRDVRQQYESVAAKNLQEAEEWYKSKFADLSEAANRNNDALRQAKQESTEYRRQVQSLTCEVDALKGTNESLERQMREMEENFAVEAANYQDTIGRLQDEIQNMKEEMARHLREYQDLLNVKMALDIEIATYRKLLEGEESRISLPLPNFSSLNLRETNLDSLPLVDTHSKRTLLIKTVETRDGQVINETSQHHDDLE
UniProt Q9UBN7: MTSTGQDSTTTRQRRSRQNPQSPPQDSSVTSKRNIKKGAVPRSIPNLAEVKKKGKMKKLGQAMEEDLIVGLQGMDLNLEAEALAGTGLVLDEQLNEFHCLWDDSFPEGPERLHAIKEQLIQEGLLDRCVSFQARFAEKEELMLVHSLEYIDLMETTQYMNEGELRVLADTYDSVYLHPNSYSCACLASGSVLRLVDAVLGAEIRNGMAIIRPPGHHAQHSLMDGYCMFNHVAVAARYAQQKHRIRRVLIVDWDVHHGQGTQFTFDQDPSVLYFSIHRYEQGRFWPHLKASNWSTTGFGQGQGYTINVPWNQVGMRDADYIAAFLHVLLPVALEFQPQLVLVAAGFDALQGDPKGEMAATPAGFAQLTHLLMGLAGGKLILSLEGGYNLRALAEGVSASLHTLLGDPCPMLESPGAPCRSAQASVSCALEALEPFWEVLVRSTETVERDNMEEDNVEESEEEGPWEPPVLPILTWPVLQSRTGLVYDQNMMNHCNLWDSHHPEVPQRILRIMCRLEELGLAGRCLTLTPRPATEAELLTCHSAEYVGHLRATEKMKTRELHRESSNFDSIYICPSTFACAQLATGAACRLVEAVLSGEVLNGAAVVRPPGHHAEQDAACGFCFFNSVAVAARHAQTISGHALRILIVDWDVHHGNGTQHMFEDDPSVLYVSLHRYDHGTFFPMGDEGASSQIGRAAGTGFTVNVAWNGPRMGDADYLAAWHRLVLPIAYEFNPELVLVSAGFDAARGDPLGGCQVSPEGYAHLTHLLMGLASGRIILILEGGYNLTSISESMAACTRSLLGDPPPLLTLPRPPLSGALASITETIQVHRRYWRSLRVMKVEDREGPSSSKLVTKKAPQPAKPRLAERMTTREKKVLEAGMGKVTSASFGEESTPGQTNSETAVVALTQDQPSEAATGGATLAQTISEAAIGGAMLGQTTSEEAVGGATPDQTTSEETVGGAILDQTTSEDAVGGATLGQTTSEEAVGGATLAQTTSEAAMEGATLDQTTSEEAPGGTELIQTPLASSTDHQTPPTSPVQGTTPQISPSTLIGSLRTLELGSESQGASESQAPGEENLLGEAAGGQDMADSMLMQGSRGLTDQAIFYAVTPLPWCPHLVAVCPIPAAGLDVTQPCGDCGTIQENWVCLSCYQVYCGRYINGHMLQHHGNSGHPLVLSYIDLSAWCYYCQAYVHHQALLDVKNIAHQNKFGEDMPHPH
UniProt O76031, residues 57-633: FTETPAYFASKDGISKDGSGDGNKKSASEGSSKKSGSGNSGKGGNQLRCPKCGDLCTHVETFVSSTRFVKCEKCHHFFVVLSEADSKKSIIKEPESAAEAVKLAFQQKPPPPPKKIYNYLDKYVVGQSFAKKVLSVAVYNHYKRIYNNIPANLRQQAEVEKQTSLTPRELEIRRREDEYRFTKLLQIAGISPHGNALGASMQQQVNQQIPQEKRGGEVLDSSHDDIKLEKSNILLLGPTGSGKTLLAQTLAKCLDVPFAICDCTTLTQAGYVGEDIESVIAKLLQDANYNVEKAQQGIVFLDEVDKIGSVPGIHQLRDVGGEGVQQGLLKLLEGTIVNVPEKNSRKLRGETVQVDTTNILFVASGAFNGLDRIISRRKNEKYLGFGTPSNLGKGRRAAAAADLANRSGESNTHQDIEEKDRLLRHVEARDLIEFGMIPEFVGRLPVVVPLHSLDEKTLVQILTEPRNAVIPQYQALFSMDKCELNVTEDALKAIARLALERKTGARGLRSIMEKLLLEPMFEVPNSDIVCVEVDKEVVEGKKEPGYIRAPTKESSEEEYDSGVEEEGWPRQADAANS
UniProt Q9UQE7: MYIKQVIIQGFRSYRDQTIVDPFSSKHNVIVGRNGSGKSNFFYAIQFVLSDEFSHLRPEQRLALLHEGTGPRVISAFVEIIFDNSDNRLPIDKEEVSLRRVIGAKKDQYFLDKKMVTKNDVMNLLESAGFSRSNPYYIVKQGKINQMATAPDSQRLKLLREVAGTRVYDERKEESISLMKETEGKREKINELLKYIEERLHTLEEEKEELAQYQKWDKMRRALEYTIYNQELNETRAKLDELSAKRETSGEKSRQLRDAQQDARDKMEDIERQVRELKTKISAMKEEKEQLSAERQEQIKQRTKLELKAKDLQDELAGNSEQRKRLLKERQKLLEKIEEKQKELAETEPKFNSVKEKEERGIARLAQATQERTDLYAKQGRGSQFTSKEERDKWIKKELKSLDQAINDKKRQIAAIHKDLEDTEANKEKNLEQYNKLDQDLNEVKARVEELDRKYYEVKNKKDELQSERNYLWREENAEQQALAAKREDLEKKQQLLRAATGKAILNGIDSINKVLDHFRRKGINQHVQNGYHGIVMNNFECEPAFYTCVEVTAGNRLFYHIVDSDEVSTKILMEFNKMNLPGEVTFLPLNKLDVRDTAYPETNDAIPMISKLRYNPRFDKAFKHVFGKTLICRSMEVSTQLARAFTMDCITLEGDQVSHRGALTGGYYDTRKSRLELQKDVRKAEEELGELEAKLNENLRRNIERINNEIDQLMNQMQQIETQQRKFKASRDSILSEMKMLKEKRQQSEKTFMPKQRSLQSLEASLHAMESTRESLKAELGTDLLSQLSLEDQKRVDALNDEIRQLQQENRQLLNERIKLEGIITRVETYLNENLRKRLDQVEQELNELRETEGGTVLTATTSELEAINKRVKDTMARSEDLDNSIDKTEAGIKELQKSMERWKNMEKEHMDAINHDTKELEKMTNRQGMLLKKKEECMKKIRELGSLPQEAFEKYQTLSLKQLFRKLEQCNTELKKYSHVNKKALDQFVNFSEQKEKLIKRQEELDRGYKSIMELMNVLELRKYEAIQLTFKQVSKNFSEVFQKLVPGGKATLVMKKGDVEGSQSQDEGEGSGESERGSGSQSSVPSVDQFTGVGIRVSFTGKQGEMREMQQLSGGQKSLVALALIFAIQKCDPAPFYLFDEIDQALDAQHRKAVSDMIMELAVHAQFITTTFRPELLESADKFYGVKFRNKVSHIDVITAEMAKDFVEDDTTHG
UniProt P15927: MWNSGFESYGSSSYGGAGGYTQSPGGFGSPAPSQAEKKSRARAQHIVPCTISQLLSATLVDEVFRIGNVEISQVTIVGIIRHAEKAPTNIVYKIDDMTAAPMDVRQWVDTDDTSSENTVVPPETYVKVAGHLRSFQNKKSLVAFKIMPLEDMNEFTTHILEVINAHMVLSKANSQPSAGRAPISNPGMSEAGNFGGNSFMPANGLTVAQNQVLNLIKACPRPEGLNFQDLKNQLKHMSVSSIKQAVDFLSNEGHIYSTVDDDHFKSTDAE
UniProt P12270: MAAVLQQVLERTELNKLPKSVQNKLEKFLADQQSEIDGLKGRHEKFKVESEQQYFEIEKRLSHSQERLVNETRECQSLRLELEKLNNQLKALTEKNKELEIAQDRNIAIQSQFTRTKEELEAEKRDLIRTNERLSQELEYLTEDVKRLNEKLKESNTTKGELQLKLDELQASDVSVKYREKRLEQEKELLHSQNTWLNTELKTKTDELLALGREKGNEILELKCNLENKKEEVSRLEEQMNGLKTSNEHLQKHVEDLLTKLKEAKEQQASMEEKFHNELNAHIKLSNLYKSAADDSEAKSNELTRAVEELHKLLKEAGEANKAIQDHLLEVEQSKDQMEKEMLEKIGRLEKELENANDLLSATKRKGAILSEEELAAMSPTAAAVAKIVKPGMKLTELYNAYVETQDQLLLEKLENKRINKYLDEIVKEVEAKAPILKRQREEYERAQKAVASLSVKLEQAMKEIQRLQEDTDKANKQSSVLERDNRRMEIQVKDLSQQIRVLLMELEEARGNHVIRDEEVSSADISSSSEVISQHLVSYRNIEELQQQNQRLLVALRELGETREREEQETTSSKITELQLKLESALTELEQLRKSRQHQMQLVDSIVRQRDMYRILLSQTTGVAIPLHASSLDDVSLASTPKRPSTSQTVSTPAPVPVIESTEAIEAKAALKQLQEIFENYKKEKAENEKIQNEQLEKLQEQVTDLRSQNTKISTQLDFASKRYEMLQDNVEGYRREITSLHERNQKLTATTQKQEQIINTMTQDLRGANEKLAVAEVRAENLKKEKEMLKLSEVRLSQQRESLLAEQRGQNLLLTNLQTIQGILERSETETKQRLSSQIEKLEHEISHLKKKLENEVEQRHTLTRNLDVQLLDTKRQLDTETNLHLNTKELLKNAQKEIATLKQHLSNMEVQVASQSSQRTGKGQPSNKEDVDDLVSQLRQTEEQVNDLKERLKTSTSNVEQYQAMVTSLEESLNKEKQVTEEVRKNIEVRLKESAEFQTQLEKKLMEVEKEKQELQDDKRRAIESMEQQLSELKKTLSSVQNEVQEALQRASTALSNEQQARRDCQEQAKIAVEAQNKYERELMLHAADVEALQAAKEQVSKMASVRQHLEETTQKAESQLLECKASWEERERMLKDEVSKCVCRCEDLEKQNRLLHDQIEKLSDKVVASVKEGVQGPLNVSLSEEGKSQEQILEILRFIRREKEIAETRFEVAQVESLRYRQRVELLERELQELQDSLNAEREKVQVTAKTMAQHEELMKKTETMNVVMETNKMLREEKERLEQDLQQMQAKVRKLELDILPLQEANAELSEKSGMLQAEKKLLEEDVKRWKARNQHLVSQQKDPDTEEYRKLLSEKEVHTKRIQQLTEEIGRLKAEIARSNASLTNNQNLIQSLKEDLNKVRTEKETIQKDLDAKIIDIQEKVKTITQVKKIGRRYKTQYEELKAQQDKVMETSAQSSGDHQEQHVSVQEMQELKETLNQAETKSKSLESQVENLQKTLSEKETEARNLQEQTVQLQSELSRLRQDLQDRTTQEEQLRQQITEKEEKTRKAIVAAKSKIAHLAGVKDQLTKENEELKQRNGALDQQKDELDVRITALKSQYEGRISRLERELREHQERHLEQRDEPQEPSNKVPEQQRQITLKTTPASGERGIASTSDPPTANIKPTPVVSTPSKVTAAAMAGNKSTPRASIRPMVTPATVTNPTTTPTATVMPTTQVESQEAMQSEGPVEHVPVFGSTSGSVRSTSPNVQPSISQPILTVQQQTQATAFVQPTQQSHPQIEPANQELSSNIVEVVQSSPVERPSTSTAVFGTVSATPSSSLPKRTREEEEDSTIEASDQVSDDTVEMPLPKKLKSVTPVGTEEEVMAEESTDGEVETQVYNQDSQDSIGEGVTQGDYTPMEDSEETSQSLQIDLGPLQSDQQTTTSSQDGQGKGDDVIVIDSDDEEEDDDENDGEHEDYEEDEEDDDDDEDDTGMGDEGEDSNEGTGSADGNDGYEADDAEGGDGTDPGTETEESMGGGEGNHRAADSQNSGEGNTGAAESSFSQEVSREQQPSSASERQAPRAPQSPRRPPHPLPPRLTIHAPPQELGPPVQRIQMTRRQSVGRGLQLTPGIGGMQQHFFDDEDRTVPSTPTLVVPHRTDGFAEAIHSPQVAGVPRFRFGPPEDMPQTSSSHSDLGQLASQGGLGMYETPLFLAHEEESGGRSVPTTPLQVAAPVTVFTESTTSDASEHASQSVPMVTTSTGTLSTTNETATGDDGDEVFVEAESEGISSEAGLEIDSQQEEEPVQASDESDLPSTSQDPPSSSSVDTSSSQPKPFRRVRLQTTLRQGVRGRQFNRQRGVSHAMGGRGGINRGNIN
UniProt Q06323: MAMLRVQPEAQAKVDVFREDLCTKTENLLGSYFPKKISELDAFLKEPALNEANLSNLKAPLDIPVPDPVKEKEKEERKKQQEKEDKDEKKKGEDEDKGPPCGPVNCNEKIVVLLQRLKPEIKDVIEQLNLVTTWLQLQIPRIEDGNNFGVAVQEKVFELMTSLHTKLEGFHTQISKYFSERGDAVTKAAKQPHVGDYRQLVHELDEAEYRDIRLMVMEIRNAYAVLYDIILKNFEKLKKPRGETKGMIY

Legend:
Test in all cases: proximity labelling
VIM-APEX2-GFP [1] = target: VIM-APEX2-GFP (UniProt P08670)
HDAC6-APEX2-GFP [2] = target: HDAC6-APEX2-GFP (UniProt Q9UBN7)
HDAC6-APEX2-GFP [3] = target: HDAC6-APEX2-GFP (UniProt Q9UBN7); remark: listed apart in the source
VIM-APEX2-GFP [4] = target: VIM-APEX2-GFP (UniProt P08670); remark: listed apart in the source

Row | binding (HDAC6-APEX2-GFP [2]) | binding (HDAC6-APEX2-GFP [3]) | Molecule | also measured
1 | binds |  | ClpX (from UniProt O76031 57-633) | binding (VIM-APEX2-GFP [1]): binds
2 | binds |  | NPM1 (from UniProt P06748 1-294) | 
3 | binds |  | SMC3 (from UniProt Q9UQE7 1-1217) | 
4 | binds |  | RPA2 (from UniProt P15927 1-270) | 
5 | binds |  | PSIP1 (from UniProt O75475 1-530) | 
6 | binds |  | PABPC1 (from UniProt P11940 1-636) | binding (VIM-APEX2-GFP [1]): binds
7 | binds |  | TPR (from UniProt P12270 1-2363) | 
8 | binds |  | PSME1 (Proteasome activator subunit 1) (from UniProt Q06323 1-249) | binding (VIM-APEX2-GFP [1]): binds
9 |  | binds | RBM42 (protein, UniProt Q9BTD8 1-480) MAGAGPAPGLPGAGGPVVPGPGAGIPGKSGEERLKEMEAEMALFEQEVLGAPVPGIPTAVPAVPTVPTVPTVEAMQVPAAPVIRPIIATNTYQQVQQTLEARAAAAATVVPPMVGGPPFVGPVGFGPGDRSHLDSPEAREAMFLRRAAVAPQRAPILRPAFVPHVLQRADSALSSAAAGPRPMALRPPHQALVGPPLPGPPGPPMMLPPMARAPGPPLGSMAALRPPLEEPAAPRELGLGLGLGLKEKEEAVVAAAAGLEEASAAVAVGAGGAPAGPAVIGPSLPLALAMPLPEPEPLPLPLEVVRGLLPPLRIPELLSLRPRPRPPRPEPPPGLMALEVPEPLGEDKKKGKPEKLKRCIRTAAGSSWEDPSLLEWDADDFRIFCGDLGNEVNDDILARAFSRFPSFLKAKVIRDKRTGKTKGYGFVSFKDPSDYVRAMREMNGKYVGSRPIKLRKSMWKDRNLDVVRKKQKEKKKLGLR | 
10 |  | binds | RFC1 (protein, UniProt P35251 1-1148) MDIRKFFGVIPSGKKLVSETVKKNEKTKSDEETLKAKKGIKEIKVNSSRKEDDFKQKQPSKKKRIIYDSDSESEETLQVKNAKKPPEKLPVSSKPGKISRQDPVTYISETDEEDDFMCKKAASKSKENGRSTNSHLGTSNMKKNEENTKTKNKPLSPIKLTPTSVLDYFGTGSVQRSNKKMVASKRKELSQNTDESGLNDEAIAKQLQLDEDAELERQLHEDEEFARTLAMLDEEPKTKKARKDTEAGETFSSVQANLSKAEKHKYPHKVKTAQVSDERKSYSPRKQSKYESSKESQQHSKSSADKIGEVSSPKASSKLAIMKRKEESSYKEIEPVASKRKENAIKLKGETKTPKKTKSSPAKKESVSPEDSEKKRTNYQAYRSYLNREGPKALGSKEIPKGAENCLEGLIFVITGVLESIERDEAKSLIERYGGKVTGNVSKKTNYLVMGRDSGQSKSDKAAALGTKIIDEDGLLNLIRTMPGKKSKYEIAVETEMKKESKLERTPQKNVQGKRKISPSKKESESKKSRPTSKRDSLAKTIKKETDVFWKSLDFKEQVAEETSGDSKARNLADDSSENKVENLLWVDKYKPTSLKTIIGQQGDQSCANKLLRWLRNWQKSSSEDKKHAAKFGKFSGKDDGSSFKAALLSGPPGVGKTTTASLVCQELGYSYVELNASDTRSKSSLKAIVAESLNNTSIKGFYSNGAASSVSTKHALIMDEVDGMAGNEDRGGIQELIGLIKHTKIPIICMCNDRNHPKIRSLVHYCFDLRFQRPRVEQIKGAMMSIAFKEGLKIPPPAMNEIILGANQDIRQVLHNLSMWCARSKALTYDQAKADSHRAKKDIKMGPFDVARKVFAAGEETAHMSLVDKSDLFFHDYSIAPLFVQENYIHVKPVAAGGDMKKHLMLLSRAADSICDGDLVDSQIRSKQNWSLLPAQAIYASVLPGELMRGYMTQFPTFPSWLGKHSSTGKHDRIVQDLALHMSLRTYSSKRTVNMDYLSLLRDALVQPLTSQGVDGVQDVVALMDTYYLMKEDFENIMEISSWGGKPSPFSKLDPKVKAAFTRAYNKEAHLTPYSLQAIKASRHSTSPSLDSEYNEELNEDDSQSDEKDQDAIETDAMIKKKTKSSKPSKPEKDKEPRKGKGKSSKK | 
11 |  | binds | UBLCP1 (Ubiquitin-like domain-containing C-terminal phosphatase 1) (protein, UniProt Q8WVY7 1-318) MALPIIVKWGGQEYSVTTLSEDDTVLDLKQFLKTLTGVLPERQKLLGLKVKGKPAENDVKLGALKLKPNTKIMMMGTREESLEDVLGPPPDNDDVVNDFDIEDEVVEVENREENLLKISRRVKEYKVEILNPPREGKKLLVLDVDYTLFDHRSCAETGVELMRPYLHEFLTSAYEDYDIVIWSATNMKWIEAKMKELGVSTNANYKITFMLDSAAMITVHTPRRGLIDVKPLGVIWGKFSEFYSKKNTIMFDDIGRNFLMNPQNGLKIRPFMKAHLNRDKDKELLKLTQYLKEIAKLDDFLDLNHKYWERYLSKKQGQ | binding (VIM-APEX2-GFP [4]): binds
12 |  | binds | TRMT10C (protein, UniProt Q7L0Y3 40-403) MSSKIPAVTYPKNESTPPSEELELDKWKTTMKSSVQEECVSTISSSKDEDPLAATREFIEMWRLLGREVPEHITEEELKTLMECVSNTAKKKYLKYLYTKEKVKKARQIKKEMKAAAREEAKNIKLLETTEEDKQKNFLFLRLWDRNMDIAMGWKGAQAMQFGQPLVFDMAYENYMKRKELQNTVSQLLESEGWNRRNVDPFHIYFCNLKIDGALHRELVKRYQEKWDKLLLTSTEKSHVDLFPKDSIIYLTADSPNVMTTFRHDKVYVIGSFVDKSMQPGTSLAKAKRLNLATECLPLDKYLQWEIGNKNLTLDQMIRILLCLKNNGNWQEALQFVPKRKHTGFLEISQHSQEFINRLKKAKT | 
13 |  | binds | ACADM (protein, UniProt P11310 26-421) KANRQREPGLGFSFEFTEQQKEFQATARKFAREEIIPVAAEYDKTGEYPVPLIRRAWELGLMNTHIPENCGGLGLGTFDACLISEELAYGCTGVQTAIEGNSLGQMPIIIAGNDQQKKKYLGRMTEEPLMCAYCVTEPGAGSDVAGIKTKAEKKGDEYIINGQKMWITNGGKANWYFLLARSDPDPKAPANKAFTGFIVEADTPGIQIGRKELNMGQRCSDTRGIVFEDVKVPKENVLIGDGAGFKVAMGAFDKTRPVVAAGAVGLAQRALDEATKYALERKTFGKLLVEHQAISFMLAEMAMKVELARMSYQRAAWEVDSGRRNTYYASIAKAFAGDIANQLATDAVQILGGNGFNTEYPVEKLMRDAKIYQIYEGTSQIQRLIVAREHIDKYKN | 
14 |  | binds | ACAA2 (protein, UniProt P42765 1-397) MALLRGVFVVAAKRTPFGAYGGLLKDFTATDLSEFAAKAALSAGKVSPETVDSVIMGNVLQSSSDAIYLARHVGLRVGIPKETPALTINRLCGSGFQSIVNGCQEICVKEAEVVLCGGTESMSQAPYCVRNVRFGTKLGSDIKLEDSLWVSLTDQHVQLPMAMTAENLAVKHKISREECDKYALQSQQRWKAANDAGYFNDEMAPIEVKTKKGKQTMQVDEHARPQTTLEQLQKLPPVFKKDGTVTAGNASGVADGAGAVIIASEDAVKKHNFTPLARIVGYFVSGCDPSIMGIGPVPAISGALKKAGLSLKDMDLVEVNEAFAPQYLAVERSLDLDISKTNVNGGAIALGHPLGGSGSRITAHLVHELRRRGGKYAVGSACIGGGQGIAVIIQSTA | 
